Source: article PMC5536908
Results are given in words; binding and its absence hold for the method and conditions named. Binding seen in cells or lysates may run through a third protein. For some assays here: Binding can be weak; no strength is given. Where a sequence is shown, tags or fusion partners need not be part of it.

T1: GST-DUF3735 (GPHR residues 174-270) (D. discoideum) (UniProt Q54QM5)
T1 sequence: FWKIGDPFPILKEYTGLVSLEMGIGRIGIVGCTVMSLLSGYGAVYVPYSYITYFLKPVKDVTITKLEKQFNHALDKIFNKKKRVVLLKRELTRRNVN

B1: GPHR-GFP (Dictyostelium discoideum Golgi pH regulator, GFP-tagged) (protein, UniProt Q54QM5 1-547)
chain: MDTFTIEEIVKFDGGGGGISTINSNNDNIGIPSNTFEMIISTIQHFLDRSSSVASTIAVFVLSFILFFMFGWFYFLKILFRDYEVKKVFVQLSFSITFALSLTLFELIFFEIMDFMDREWRYRFWEFDLTLMSINLILVLPYYQFYLLVLAYGFSKRKTLFFSLVLLVLYLILFWKIGDPFPILKEYTGLVSLEMGIGRIGIVGCTVMSLLSGYGAVYVPYSYITYFLKPVKDVTITKLEKQFNHALDKIFNKKKRVVLLKRELTRRNVNNNNNNNNNYDTYNYNNNYNNNSNNNNNNNNSNNNNNNNLPIIGPIFSKIYNLWNVGYHHQLSRPIDDIKQLEREIKQLEDLNRDLFTQIHELKLERLRIQFSTTLRGKFYNWLGYFFSIYWKKKSALNIVFDRRGGMDPVTRGLDIALRYFHFQVDVTFWSQHISFILVGLMTASSIRGFLNQILKVFHEYSSSLSSNNIVLILAQVMGMYFISSVLMMRTSMPEIYTRFIVTQILGDIEFSFYHRWFDFIFIPSAIITTLALIFMSKSSTFHLNDE

Assays:
Test in all cases: pull-down; GST fusion proteins (or GST) bound to glutathione Sepharose 4B beads; GFP-tagged proteins from D. discoideum lysates; 10 mM Tris-HCl pH 7.5, 100 mM NaCl added to the lysate; blot probed with anti-GFP mAb K3-184-2; only the target purified
[1] = biological target: T1, GST-DUF3735 (GPHR residues 174-270) (D. discoideum)
[2] = biological target: GST-TPP1B (residues 21-598) (D. discoideum)
[3] = biological target: GST-TPP1F (residues 21-702, lacking the signal peptide) (D. discoideum)
[4] = biological target: GST-catalytic domain of TPP1F (residues 201-702) (D. discoideum)
[5] = biological target: GST-prodomain of TPP1F (residues 21-200) (D. discoideum)

Row | Molecule | binding [1] | binding [2] | binding [3] | binding [4] | binding [5]
1 | TPP1F-GFP (amino acid residues 1-702) (D. discoideum) (enzyme) | binds |  |  |  | 
2 | B1 |  | binds | binds | no binding | binds
